# Source: the supplement of paper PMC8728848
# The list shows a part of the results.
# Tests used:
# Experiment in all cases: glycan array binding signal (z-score within array); higher = stronger binding
# Conditions in all cases: glycan notation: IUPAC condensed, linker removed
# [1] = target: GlcNAc(b1-3)Gal(b1-4)GlcNAc(b1-3)Gal(b1-4)GlcNAc(b1-3)GalNAc
# Method in brief: (§1)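 Glycan array data were curated from 3228 arrays in the Consortium for Functional Glycomics database and kept only where the protein sequence was available. Glycan names were converted to IUPAC-condensed notation, and columns mapping to the same glycan were averaged. The binding signal is a within-array Z-score, averaged across arrays of the same protein sequence at different concentrations or buffers and across linkers. Negative Z-scores can be read as non-binding.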
# [2] = target: GlcNAc(b1-3)Gal(b1-4)GlcNAc(b1-3)GalNAc
# Method in brief: as §1
# [3] = target: GlcNAc(b1-3)Gal(b1-4)GlcNAc(b1-3)[GlcNAc(b1-3)Gal(b1-4)GlcNAc(b1-3)]GalNAc
# Method in brief: as §1
# [4] = target: GlcNAc(b1-3)Gal(b1-4)GlcNAc(b1-6)[Gal(b1-3)]GalNAc
# Method in brief: as §1
# [5] = target: GlcNAc(b1-3)Gal(b1-4)GlcNAc(b1-6)[GlcNAc(b1-3)Gal(b1-3)]GalNAc
# Method in brief: as §1
# [6] = target: GlcNAc(b1-3)Gal(b1-4)GlcNAc(b1-6)[GlcNAc(b1-3)]Gal(b1-4)GlcNAc
# Method in brief: as §1
# [7] = target: GlcNAc(b1-3)GalNAc
# Method in brief: as §1
# [8] = target: GlcNAc(b1-3)Man
# Method in brief: as §1
# [9] = target: GlcNAc(b1-3)[GlcNAc(b1-4)][GlcNAc(b1-6)]GlcNAc
# Method in brief: as §1
# [10] = target: GlcNAc(b1-3)[GlcNAc(b1-6)]Gal(b1-4)GlcNAc
# Method in brief: as §1
# [11] = target: GlcNAc(b1-3)[GlcNAc(b1-6)]GalNAc
# Method in brief: as §1
# [12] = target: GlcNAc(b1-4)Gal(b1-4)GlcNAc
# Method in brief: as §1
# [13] = target: GlcNAc(b1-4)GlcNAc
# Method in brief: as §1
# [14] = target: GlcNAc(b1-4)GlcNAc(b1-4)GlcNAc
# Method in brief: as §1
# [15] = target: GlcNAc(b1-4)GlcNAc(b1-4)GlcNAc(b1-4)GlcNAc(b1-4)GlcNAc
# Method in brief: as §1
# [16] = target: GlcNAc(b1-4)GlcNAc(b1-4)GlcNAc(b1-4)GlcNAc(b1-4)GlcNAc(b1-4)GlcNAc
# Method in brief: as §1
# [17] = target: GlcNAc(b1-4)[GlcNAc(b1-6)]GalNAc
# Method in brief: as §1
# [18] = target: GlcNAc(b1-6)Gal(b1-4)GlcNAc
# Method in brief: as §1
# [19] = target: GlcNAc(b1-6)GalNAc
# Method in brief: as §1
# [20] = target: GlcNAc6S(b1-3)Gal(b1-4)GlcNAc
# Method in brief: as §1
# [21] = target: Kdn(a2-3)Gal(b1-3)GalNAc
# Method in brief: as §1
# [22] = target: Kdn(a2-3)Gal(b1-3)GlcNAc
# Method in brief: as §1
# [23] = target: Kdn(a2-3)Gal(b1-4)Glc
# Method in brief: as §1
# [24] = target: Kdn(a2-3)Gal(b1-4)GlcNAc
# Method in brief: as §1
# [25] = target: Kdn(a2-3)Gal(b1-4)[Fuc(a1-3)]GlcNAc
# Method in brief: as §1
# [26] = target: Kdn(a2-6)Gal(b1-4)GlcNAc
# Method in brief: as §1
# [27] = target: Man(a1-2)Man(a1-2)Man(a1-3)Man
# Method in brief: as §1
# [28] = target: Man(a1-2)Man(a1-2)Man(a1-6)[Man(a1-3)]Man
# Method in brief: as §1
# [29] = target: Man(a1-2)Man(a1-3)Man
# Method in brief: as §1
# [30] = target: Man(a1-2)Man(a1-3)[Man(a1-2)Man(a1-6)]Man
# Method in brief: as §1
# [31] = target: Man(a1-2)Man(a1-3)[Man(a1-2)Man(a1-6)]Man(a1-6)[Man(a1-2)Man(a1-2)Man(a1-3)]Man
# Method in brief: as §1
# [32] = target: Man(a1-2)Man(a1-3)[Man(a1-2)Man(a1-6)]Man(a1-6)[Man(a1-2)Man(a1-2)Man(a1-3)]Man(b1-4)GlcNAc(b1-4)GlcNAc
# Method in brief: as §1
# [33] = target: Man(a1-2)Man(a1-3)[Man(a1-6)]Man(a1-6)[Man(a1-2)Man(a1-3)]Man(b1-4)GlcNAc(b1-4)GlcNAc
# Method in brief: as §1
# [34] = target: Man(a1-2)Man(a1-6)[Man(a1-3)]Man(a1-6)[Man(a1-2)Man(a1-2)Man(a1-3)]Man
# Method in brief: as §1
# [35] = target: Man(a1-2)Man(a1-6)[Man(a1-3)]Man(a1-6)[Man(a1-2)Man(a1-2)Man(a1-3)]Man(b1-4)GlcNAc(b1-4)GlcNAc
# Method in brief: as §1
# [36] = target: Man(a1-3)[Man(a1-6)]Man
# Method in brief: as §1
# [37] = target: Man(a1-3)[Man(a1-6)]Man(a1-6)[Man(a1-2)Man(a1-3)]Man(b1-4)GlcNAc(b1-4)GlcNAc
# Method in brief: as §1
# [38] = target: Man(a1-3)[Man(a1-6)]Man(a1-6)[Man(a1-3)]Man
# Method in brief: as §1
# [39] = target: Man(a1-3)[Man(a1-6)]Man(a1-6)[Man(a1-3)]Man(b1-4)GlcNAc(b1-4)GlcNAc
# Method in brief: as §1
# [40] = target: Man(a1-3)[Man(a1-6)]Man(b1-4)GlcNAc(b1-4)GlcNAc
# Method in brief: as §1
# [41] = target: Man(a1-3)[Man(a1-6)]Man(b1-4)GlcNAc(b1-4)[Fuc(a1-6)]GlcNAc
# Method in brief: as §1
# [42] = target: Man(a1-6)Man
# Method in brief: as §1
# [43] = target: Man(b1-4)GlcNAc
# Method in brief: as §1
# [44] = target: MurNAc(b1-4)GlcNAc
# Method in brief: as §1
# [45] = target: Neu5Ac(a2-3)Gal
# Method in brief: as §1
binder,measurement,setting,value
Loc1 (Escherichia coli) (protein) APCALTNVGEQRGTYILKPLSMKGNLTAEKIENTGNIIECTDLQETTNAIKVHFLTQNALKFKVGSRHYIINFPFEYDGKKIELPGKSSYNLEEMLSAINFTIPYSIASVSDSSNTADIFPGTPFPLLFEIEVSSCTGNNTNCNSVRFNYNLNTILQVNLMTHHHHHH,glycan array binding signal (z-score),[1],1.02
same,glycan array binding signal (z-score),[2],0.574
same,glycan array binding signal (z-score),[3],-0.192
same,glycan array binding signal (z-score),[4],0.218
same,glycan array binding signal (z-score),[5],0.01
same,glycan array binding signal (z-score),[6],-0.002
same,glycan array binding signal (z-score),[7],-0.454
same,glycan array binding signal (z-score),[8],-0.929
same,glycan array binding signal (z-score),[9],0.666
same,glycan array binding signal (z-score),[10],1.03
same,glycan array binding signal (z-score),[11],-0.181
same,glycan array binding signal (z-score),[12],-0.885
same,glycan array binding signal (z-score),[13],-0.092
same,glycan array binding signal (z-score),[14],-0.7
same,glycan array binding signal (z-score),[15],0.463
same,glycan array binding signal (z-score),[16],-0.432
same,glycan array binding signal (z-score),[17],-0.131
same,glycan array binding signal (z-score),[18],0.324
same,glycan array binding signal (z-score),[19],-0.645
same,glycan array binding signal (z-score),[20],0.039
same,glycan array binding signal (z-score),[21],-0.831
same,glycan array binding signal (z-score),[22],-0.793
same,glycan array binding signal (z-score),[23],-0.368
same,glycan array binding signal (z-score),[24],0.179
same,glycan array binding signal (z-score),[25],-0.405
same,glycan array binding signal (z-score),[26],-0.921
same,glycan array binding signal (z-score),[27],-0.032
same,glycan array binding signal (z-score),[28],0.249
same,glycan array binding signal (z-score),[29],0.82
same,glycan array binding signal (z-score),[30],0.531
same,glycan array binding signal (z-score),[31],-0.121
same,glycan array binding signal (z-score),[32],-0.687
same,glycan array binding signal (z-score),[33],-0.074
same,glycan array binding signal (z-score),[34],-1.02
same,glycan array binding signal (z-score),[35],-1.09
same,glycan array binding signal (z-score),[36],-0.118
same,glycan array binding signal (z-score),[37],-0.042
same,glycan array binding signal (z-score),[38],-0.761
same,glycan array binding signal (z-score),[39],0.131
same,glycan array binding signal (z-score),[40],0.959
same,glycan array binding signal (z-score),[41],-1.1
same,glycan array binding signal (z-score),[42],0.766
same,glycan array binding signal (z-score),[43],-0.219
same,glycan array binding signal (z-score),[44],-0.533
same,glycan array binding signal (z-score),[45],-0.225

# At a glance, some entries already given:
binder,measurement,setting,value
Loc1 (Escherichia coli) (protein) APCALTNVGEQRGTYILKPLSMKGNLTAEKIENTGNIIECTDLQETTNAIKVHFLTQNALKFKVGSRHYIINFPFEYDGKKIELPGKSSYNLEEMLSAINFTIPYSIASVSDSSNTADIFPGTPFPLLFEIEVSSCTGNNTNCNSVRFNYNLNTILQVNLMTHHHHHH,glycan array binding signal (z-score),[1],1.02
same,glycan array binding signal (z-score),[2],0.574
same,glycan array binding signal (z-score),[3],-0.192
same,glycan array binding signal (z-score),[4],0.218
